Test results taken from doi:10.1101/302299.
Results are given in words; binding and its absence hold for the method and conditions named.

Amino acid sequences for entries named in this document (tags omitted).
UniProt Q9LSX0, whole entry: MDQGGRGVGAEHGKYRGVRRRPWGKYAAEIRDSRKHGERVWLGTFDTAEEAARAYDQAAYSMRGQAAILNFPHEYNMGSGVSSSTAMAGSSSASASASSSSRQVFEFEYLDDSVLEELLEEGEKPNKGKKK

Molecular target: Arabidopsis ETHYLENE RESPONSE FACTOR 96 (Arabidopsis thaliana) (UniProt Q9LSX0)
Assay: SEC + other: dynamic light scattering

Arabidopsis ETHYLENE RESPONSE FACTOR 96 (from UniProt Q9LSX0 1-131)
binding: no binding (tested: 1 mg/mL (DLS))
